No constants are given. Whether binding was seen depends on the method and setting. For part of these data: Binding seen in cells or lysates may run through a third protein. Some entries that bind do so weakly or less than the wild type. Sequences can lack the tags named with a protein.

Sequences of proteins named here, by UniProt entry; tags and fusion partners are left off.
UniProt Q9SSA8: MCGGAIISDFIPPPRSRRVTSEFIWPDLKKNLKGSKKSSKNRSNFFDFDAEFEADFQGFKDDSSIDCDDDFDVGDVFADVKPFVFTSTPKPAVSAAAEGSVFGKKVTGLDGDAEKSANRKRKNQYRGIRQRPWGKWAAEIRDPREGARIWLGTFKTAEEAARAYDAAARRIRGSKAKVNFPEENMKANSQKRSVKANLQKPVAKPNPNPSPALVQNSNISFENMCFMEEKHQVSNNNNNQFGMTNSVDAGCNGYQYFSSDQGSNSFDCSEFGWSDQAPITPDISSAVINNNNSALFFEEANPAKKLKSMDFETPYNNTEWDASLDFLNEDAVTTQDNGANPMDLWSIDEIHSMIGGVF
UniProt O22259: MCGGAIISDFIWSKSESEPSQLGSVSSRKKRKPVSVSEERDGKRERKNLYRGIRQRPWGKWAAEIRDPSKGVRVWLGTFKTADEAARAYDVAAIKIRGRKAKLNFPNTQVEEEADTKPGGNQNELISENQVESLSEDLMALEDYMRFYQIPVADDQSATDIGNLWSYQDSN
UniProt Q9LUM4: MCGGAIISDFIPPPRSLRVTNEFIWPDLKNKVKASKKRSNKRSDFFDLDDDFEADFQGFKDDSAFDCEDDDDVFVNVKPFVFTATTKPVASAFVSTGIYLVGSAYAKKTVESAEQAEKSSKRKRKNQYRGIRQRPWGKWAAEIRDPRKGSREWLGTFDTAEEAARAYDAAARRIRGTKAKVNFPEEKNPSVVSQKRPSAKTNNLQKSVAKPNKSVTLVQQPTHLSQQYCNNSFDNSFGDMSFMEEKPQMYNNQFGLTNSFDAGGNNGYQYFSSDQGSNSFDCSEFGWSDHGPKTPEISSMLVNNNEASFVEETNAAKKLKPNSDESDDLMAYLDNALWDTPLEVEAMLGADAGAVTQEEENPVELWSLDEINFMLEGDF
UniProt Q8H0T5: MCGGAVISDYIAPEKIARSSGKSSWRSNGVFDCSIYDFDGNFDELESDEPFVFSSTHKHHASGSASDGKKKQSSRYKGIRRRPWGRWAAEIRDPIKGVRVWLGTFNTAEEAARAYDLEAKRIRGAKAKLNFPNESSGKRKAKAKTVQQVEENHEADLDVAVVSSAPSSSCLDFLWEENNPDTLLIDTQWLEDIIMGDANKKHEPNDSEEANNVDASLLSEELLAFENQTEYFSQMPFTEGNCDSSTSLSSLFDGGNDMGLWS
UniProt P42736: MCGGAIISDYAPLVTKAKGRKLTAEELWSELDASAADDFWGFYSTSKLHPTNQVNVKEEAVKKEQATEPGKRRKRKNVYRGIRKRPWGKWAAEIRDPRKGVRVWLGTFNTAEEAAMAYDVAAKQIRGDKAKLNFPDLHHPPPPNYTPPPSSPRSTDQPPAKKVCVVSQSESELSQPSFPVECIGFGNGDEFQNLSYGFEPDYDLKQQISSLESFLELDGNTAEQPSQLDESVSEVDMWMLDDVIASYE

For assay [1], the target named is T1, AtMED21 fused with the GAL4 DNA-binding domain (pDEST32 bait) (Arabidopsis thaliana) (UniProt C0LU16).
T1 sequence: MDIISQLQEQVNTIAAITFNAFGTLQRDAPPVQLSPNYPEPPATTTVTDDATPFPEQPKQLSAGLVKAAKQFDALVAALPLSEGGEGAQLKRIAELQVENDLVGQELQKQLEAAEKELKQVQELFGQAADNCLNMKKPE
Kind of assay: two-hybrid.

Assay [2] addresses T2, AtMED25 fused with the GAL4 DNA binding domain (full-length, pDEST32 bait) (Arabidopsis thaliana) (UniProt Q7XYY2).
T2 sequence: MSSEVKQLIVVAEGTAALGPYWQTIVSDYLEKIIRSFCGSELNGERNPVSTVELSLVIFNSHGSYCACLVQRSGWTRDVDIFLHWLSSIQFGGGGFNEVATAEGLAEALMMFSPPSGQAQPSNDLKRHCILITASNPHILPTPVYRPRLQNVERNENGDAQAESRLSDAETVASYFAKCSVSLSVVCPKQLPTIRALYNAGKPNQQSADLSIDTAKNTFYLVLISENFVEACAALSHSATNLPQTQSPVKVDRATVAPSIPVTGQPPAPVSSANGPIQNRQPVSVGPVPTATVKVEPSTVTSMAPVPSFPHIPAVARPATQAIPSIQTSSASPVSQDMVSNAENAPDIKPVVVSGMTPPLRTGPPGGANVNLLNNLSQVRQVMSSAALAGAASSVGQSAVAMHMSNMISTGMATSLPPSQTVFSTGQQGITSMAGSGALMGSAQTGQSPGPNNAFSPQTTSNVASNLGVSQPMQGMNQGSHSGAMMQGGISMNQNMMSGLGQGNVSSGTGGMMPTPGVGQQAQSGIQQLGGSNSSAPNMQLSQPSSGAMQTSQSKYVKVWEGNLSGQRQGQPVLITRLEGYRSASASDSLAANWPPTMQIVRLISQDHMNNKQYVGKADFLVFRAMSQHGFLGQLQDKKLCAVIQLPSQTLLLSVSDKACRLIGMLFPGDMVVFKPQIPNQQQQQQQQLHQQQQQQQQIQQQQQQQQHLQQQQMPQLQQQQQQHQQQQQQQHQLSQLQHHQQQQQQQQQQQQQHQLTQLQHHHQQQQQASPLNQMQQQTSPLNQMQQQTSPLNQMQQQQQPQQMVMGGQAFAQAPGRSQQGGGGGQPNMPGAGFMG
The experiment in a line: two-hybrid.

Assay [3] concerns the target T3, AtMED25-nYFP (Arabidopsis protoplasts) (Arabidopsis thaliana) (UniProt Q7XYY2).
T3 sequence: T2 sequence
Kind of assay: split reporter.

As for “RAP2.12 fused with the GAL4 activation domain (full-length, pDEST22 prey) (from UniProt Q9SSA8 1-358)”, the binding entry is on record as “no binding” in assay [1] and “binds” in assay [2].
Turning to “HRE2 fused with the GAL4 activation domain (pDEST22 prey) (from UniProt O22259 1-171)”, the binding result in assay [2] is on record as “no binding”.
Turning to “RAP2.12-cYFP (from UniProt Q9SSA8 1-358)”, in assay [3], the binding result is recorded as “binds”.
Regarding RAP2.2-cYFP (from UniProt Q9LUM4 1-379), the binding result in assay [3] is recorded as “binds”.
For the substance “RAP2.2 fused with the GAL4 activation domain (full-length, pDEST22 prey) (from UniProt Q9LUM4 1-379)”, the binding result is reported as “no binding” in assay [1] and “binds” in assay [2].
As for “HRE1 fused with the GAL4 activation domain (pDEST22 prey) (from UniProt Q8H0T5 1-262)”, the binding result in assay [2] was “no binding”.
Same read-out and setting: with “RAP2.3 fused with the GAL4 activation domain (pDEST22 prey) (from UniProt P42736 1-248)” the entry was “no binding”.

Values taken from publication doi:10.1101/2024.01.26.577166.
